Data from the supplement of paper PMC8551327.
The list shows a part of the results. Cut-off read from the data, not from the text of the source: active = 1.25 or more and inactive = the rest. Many values rest on one well or one pass, so single values are uncertain.

These compounds were tested on Kcc2-LUC knock-in mouse primary cortical neurons (Kcc2 promoter reporter) (assay: Kcc2 promoter-driven luciferase activity relative to vehicle control (fold of vehicle (ratio)); higher = stronger Kcc2 promoter activation (Kcc2 expression enhancer)). Settings: 100 nM; 48 h.

Row | Structure (SMILES) | Kcc2 promoter-driven luciferase activity
1 | CC(=O)C(NC(=O)C(C)C(O)C(C)NC(=O)C(NC(=O)c1nc(C(CC(N)=O)NCC(N)C(N)=O)nc(N)c1C)C(O[C@@H]1O[C@@H](CO)[C@@H](O)[C@H](O)[C@]1(C)O[C@@H]1OC(CO)[C@H](O)[C@](O)(C(N)=O)[C@H]1O)c1cnc[nH]1)C(=O)NCCC1=NC(c2nc(C(N)=O)cs2)CS1 (some centres undefined) [Phleomycin] | inactive: 0.78
2 | C=C1CC(COc2cc(=O)oc3ccccc23)(c2ccccc2)OC1=O (centres undefined) | inactive: 0.97
3 | COc1ccc(/C=C/c2cc(O)cc(O[C@@H]3O[C@H](CO)[C@@H](O)[C@H](O)[C@H]3O)c2)cc1O [Ponticin] | inactive: 0.91
4 | CN(C)c1ccc(/C=C2\CCc3ccccc3C2=O)cc1Br | inactive: 0.93
5 | C[n+]1ccc(Nc2ccc(NC(=O)c3ccc(Nc4cc[n+](C)c5ccc([N+](=O)[O-])cc45)cc3[N+](=O)[O-])cc2)cc1 [Quinolinium, dichloride] | active: 1.45
6 | Cc1ccc(NC(=S)C#N)c(C)c1 [1-Cyano-N-(2,4-dimethylphenyl)methanethioamide] | active: 1.31
7 | Cc1cc(=O)c2c(O)c3c(O)cc(O)c4c5c(O)cc(O)c6c(O)c7c(=O)cc(C)c8c1c2c(c34)c(c65)c78 [Hypericin] | inactive: 0.83
8 | CCN(CC)CCNc1ccc(C)c2sc3ccccc3c(=O)c12 [Lucanthone] | active: 2.1
9 | CC1CC(O)C2C3(C)CCCC2(COC3=O)C12CCC1(CCOC1=O)O2 (centres undefined) | inactive: 0.988
10 | CS(=O)(=O)c1nc(N)nc2nc[nH]c12 [6-(Methylsulfonyl)-9H-purin-2-amine] | inactive: 1.08
11 | C[C@H]1CC[C@@H](C(C)(C)O)CC2=C1CC[C@@H]2C [Guaiol] | inactive: 0.914
12 | COC1=C(N)C(=O)c2nc(-c3nc(C(=O)O)c(C)c(-c4ccc(OC)c(OC)c4O)c3N)ccc2C1=O [Streptonigrin] | inactive: 0.06
13 | OC[C@H]1O[C@@H](n2cnc3cncnc32)[C@H](O)[C@@H]1O [Purine riboside] | inactive: 0.96
14 | COC1=C(N)C(=O)c2nc(C)ccc2C1=O [7-Amino-6-methoxy-2-methylquinoline-5,8-dione] | inactive: 1
15 | CNC(=S)N/N=C/c1ccc([N+](=O)[O-])s1 | inactive: 1.12
16 | Cc1[nH]c(=O)nc(N/N=C/c2ccc(Cl)cc2)c1C(=O)Nc1ccc(Cl)cc1 [Pyrimidine-5-carboxamide,2-dihydro- 6-methyl-2-oxo-] | inactive: 1.24
17 | CCCC[S+]([O-])CC(CO)NC(=O)C=Cc1c(C)[nH]c(=O)[nH]c1=O (stereo in doubt) | inactive: 0.85
18 | CN(NC1=NCCO1)c1ccc2ccccc2c1 [2-(2-Methyl-2-(2-naphthyl)hydrazino)-4,5-dihydro-1,3-oxazole] | inactive: 0.88
19 | Clc1ccccc1C(c1ccccc1)(c1ccccc1)n1ccnc1 [Clotrimazole] | inactive: 0.85
20 | CC(=Nc1ccccc1)C1=C(O)C(Cc2ccccc2)NC1=O (centres undefined) [(3E)-3-(1-Anilinoethylidene)-g-benzylpyrrolidine-2,4-dione] | inactive: 1.11

Row | Structure (SMILES) | Kcc2 promoter-driven luciferase activity
21 | COc1cc(C[C@H]2c3cc(OC)c(OC)cc3CCN2C)c(Oc2cc3c(cc2OC)-c2c(OC)c(OC)cc4c2[C@H](C3)N(C)CC4)cc1OC | inactive: 1.19
22 | Cn1ncc2cc3c(Nc4ccc(Cl)cc4)cccc3nc21 [N-(4-chlorophenyl)-1-methylpyrazolo[3,4-b]quinolin-5-amine] | active: 1.33
23 | COc1cc(C(C)c2cc3c(cc2OCCO)OCO3)cc(OC)c1OC (centres undefined) | inactive: 0.96
24 | COc1ccc(/C=C/C(=O)Oc2cc(O)cc(O)c2)cc1 [(3,5-Dihydroxyphenyl) (E)-3-(4-methoxyphenyl)prop-2-enoate] | inactive: 1.09
25 | CC(C)N.CC(C)N.[Cl-].[Cl-].[OH-].[OH-].[Pt] [Iproplatin] | inactive: 0.82
26 | CS[C@H]1SC[C@H]2C(=O)N(C)[C@@H](C(C)C)C(=O)OC[C@@H](NC(=O)c3cnc4ccccc4n3)C(=O)N[C@@H](C)C(=O)N(C)[C@@H]1C(=O)N(C)[C@@H](C(C)C)C(=O)OC[C@@H](NC(=O)c1cnc3ccccc3n1)C(=O)N[C@@H](C)C(=O)N2C [Echinomycin] | inactive: 1.1
27 | CCCCCCCCCCCCCCCCOP(=O)([O-])OCC[N+](C)(C)C [Miltefosine] | inactive: 1.19
28 | COC(=O)c1c[nH]c2c1-c1cc(C(=O)OCc3ccccc3)n(S(=O)(=O)c3ccc(C)cc3)c1C(=O)C2=O | active: 1.28
29 | COC(=O)C1(C)C=CC(=O)C2(C)C1C(O)C1OC3CC(c4ccoc4)C(C)=C3C1(C)C2CC(=O)O (centres undefined) [Nimbinic Acid] | active: 1.29
30 | Nc1nc(O)c2[nH]nnc2n1 [8-Azaguanine] | active: 1.58
31 | O=C1NC(C2CCC(Cl)CN2)C(=O)NC1C1CCC(Cl)CN1 (centres undefined) | inactive: 0.766
32 | O=[N+]([O-])c1ccc2c(N=Nc3c(O)ccc4ccccc34)c(O)cc(S(=O)(=O)O)c2c1 [Mordant Black 1] | inactive: 0.41
33 | CC1(O)C=CC(=O)C=C1 [4-Hydroxy-4-methyl-2,5-cyclohexadien-1-one] | active: 1.37
34 | CCC12C[N+]3([O-])CCc4c([nH]c5ccccc45)C(C(=O)OC)(c4cc5c(cc4OC)N(C)C4C(O)(C(=O)OC)C(OC(C)=O)C6(CC)C=CCN7CCC54C76)CC(C3)C1O2 (centres undefined) [Leurosine N-oxide] | inactive: 0.01
35 | O=C(NCCCCCCCCNC(=O)c1cccc2ccccc12)c1cccc2ccccc12 | active: 1.29
36 | CC(C)c1ccc2nc3ccc(C(=O)NCCN(C)C)cn3c(=O)c2c1 | inactive: 1.12
37 | CC(C)=CCc1c2c(c3occ(-c4ccc(O)c(O)c4)c(=O)c3c1O)C=CC(C)(C)O2 [Pomiferin] | inactive: 0.877
38 | CC1CC(C)(O)C2C3(C)CCCC2(COC3=O)C12CCC1(CCOC1=O)O2 (centres undefined) [Leonotis Nepetaefolia Extract] | inactive: 1.08
39 | COC1CC(C)C(OC)c2cc(O)cc(c2O)NC(=O)/C(C)=C/C=C\C(C)C(OC(N)=O)/C(C)=C/C(C)C1OC (centres undefined) [Macbecin II] | inactive: 1.04

Single values from the list:
Under Kcc2 promoter-driven luciferase activity, C[n+]1ccc(Nc2ccc(NC(=O)c3ccc(Nc4cc[n+](C)c5ccc([N+](=O)[O-])cc45)cc3[N+](=O)[O-])cc2)cc1 [Quinolinium, dichloride] is entered as active: 1.45
Under Kcc2 promoter-driven luciferase activity, COC(=O)C1(C)C=CC(=O)C2(C)C1C(O)C1OC3CC(c4ccoc4)C(C)=C3C1(C)C2CC(=O)O (centres undefined) [Nimbinic Acid] is entered as active: 1.29
